# According to PMC7641737:
# The chains behind the UniProt entries cited, without tags or fusion partners.
# UniProt Q9C005: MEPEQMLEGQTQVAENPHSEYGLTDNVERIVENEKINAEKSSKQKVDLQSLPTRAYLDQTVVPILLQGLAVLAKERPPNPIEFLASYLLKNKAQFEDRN
# UniProt Q9UBL3: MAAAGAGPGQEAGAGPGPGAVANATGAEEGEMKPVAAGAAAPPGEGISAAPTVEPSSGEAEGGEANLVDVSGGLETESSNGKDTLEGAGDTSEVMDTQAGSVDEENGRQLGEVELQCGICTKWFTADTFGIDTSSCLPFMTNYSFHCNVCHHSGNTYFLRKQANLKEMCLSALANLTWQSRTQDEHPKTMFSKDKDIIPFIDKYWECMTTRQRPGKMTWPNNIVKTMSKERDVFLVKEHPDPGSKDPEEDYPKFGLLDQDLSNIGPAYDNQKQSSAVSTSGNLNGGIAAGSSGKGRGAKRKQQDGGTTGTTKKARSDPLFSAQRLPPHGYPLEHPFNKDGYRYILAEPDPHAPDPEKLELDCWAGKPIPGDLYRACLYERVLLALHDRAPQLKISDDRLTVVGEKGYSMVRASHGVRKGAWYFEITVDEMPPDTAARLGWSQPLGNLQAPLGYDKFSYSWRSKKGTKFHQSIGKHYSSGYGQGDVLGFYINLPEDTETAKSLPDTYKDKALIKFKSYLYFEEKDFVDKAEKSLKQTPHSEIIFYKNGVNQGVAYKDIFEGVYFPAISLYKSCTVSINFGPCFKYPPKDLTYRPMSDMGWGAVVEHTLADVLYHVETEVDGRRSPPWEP
# Results are given in words; binding and its absence hold for the method and conditions named. In cells and extracts the contact can be indirect. Some binding calls cover weakened binding; strength is not graded here.
# Columns and labels:
# [1] = target: Estrogen receptor alpha (ERα), endogenous (human (endogenous in MCF7 and T47D)) (UniProt P03372); experiment: co-IP; endogenous proteins in T47D cells carrying control shRNA or shBAP18; immunoprecipitated with anti-ERα or IgG; blots with antibodies against COMPASS-like core proteins, BAP18 and ERα
# [2] = target: Estrogen receptor alpha (ERα), endogenous (human (endogenous in MCF7 and T47D)) (UniProt P03372); experiment: co-IP; endogenous proteins in MCF7 cells (Figure 3C, D)
# [3] = target: Estrogen receptor alpha (ERα), endogenous (human (endogenous in MCF7 and T47D)) (UniProt P03372); experiment: co-IP; endogenous BAP18 and ERα in T47D cells with depletion of each COMPASS-like core protein (WDR5, ASH2L, DPY30); precipitating antibody not stated
Substance,binding [1],binding [2],binding [3]
"DPY30, endogenous (from UniProt Q9C005 1-99)",binds,–,–
"ASH2L, endogenous (from UniProt Q9UBL3 1-628)",binds,–,–
"BAP18, endogenous (from UniProt Q8IXM2 1-172)",binds,binds,binds
